Test results as given in patent US9233949B2, “Treatment for oxidative stress and/or hypertension” (Georgetown University, priority 2009, dated 2016).
Some results were stated once for a whole list of compounds, not compound by compound. At least one structure is not confirmed: it was looked up by name or label, or the drawing left a doubt. Some ranges recur; such a range may be that of the whole group of compounds.

Tests used:
[1] = test system: O2.^− generated by xanthine plus xanthine oxidase; assay: Cell-free SOD mimetic / antioxidant assay, lucigenin-enhanced chemiluminescence; type: biochemical; conditions: drugs 10^−4 M, cell-free buffer with xanthine plus xanthine oxidase
Protocol: Low dose (10 μmol L^−1) lucigenin-enhanced chemiluminescence was used as previously described, to detect O2.^−, antioxidants or SOD mimetic properties. Vehicle or drugs (10^−4 M) were first added to cell-free buffer with O2.^− stimulated with xanthine (25 μmol/L) plus xanthine oxidase (9 IU/mL) to study the intrinsic antioxidant properties of the drugs used (34). Subsequent studies were performed in PGVSMCs from spontaneously hypertensive rats grown in 6-well plates. Cells (10^6 cells per well) were stimulated for 4 hours with Ang II (10^−6 M) to generate O2.^− in the presence of vehicle or drugs (19, 34, 45).

[2] = test system: Ang II-stimulated spontaneously hypertensive rat preglomerular vascular smooth muscle cells; assay: O2.^− generation in Ang II-stimulated PGVSMCs, lucigenin-enhanced chemiluminescence; type: cell-based; conditions: 10^−11 M versus tempol alone at 10^−9 M and telmisartan at 10^−8 M
Protocol: Preglomerular vascular smooth muscle cells (PGVSMCs) were isolated from 13- to 15-week-old male spontaneously hypertensive rats purchased from Taconic Farms (Germantown, N.Y.) as previously described (3, 9). Briefly, 1% Fe2O3 in DMEM was injected into isolated kidneys through the renal artery. The iron-loaded kidney was removed from the rat, the cortex was minced and washed in a 1% collagenase IV solution. Blood vessels were collected on a magnet and incubated with DMEM/F12 supplemented with 10% FCS and 20 U of penicillin-streptomycin. Experiments were conducted between passage 5 and 15. PGVSMCs were cultured in DMEM/F12 supplemented with 10% FBS, 100 U/mL penicillin, 100 μg/mL streptomycin and 200 μg/mL glutamine at 37° C. in 5% CO2-95% air at 98% humidity. […]
To determine the effects of drugs, cells were pretreated with graded concentrations (10^−12 to 10^−4 M) of tempol, telmisartan, tempol plus telmisartan, and tempol/telmisartan ester-linked adduct or vehicle (PBS) for 2 hours. […] Chemiluminescence was quantitated in a reader (AutoLumatPlus LB 953; EG&G, Berthold, Germany). The dynamic tracing was recorded for 180 seconds after the addition of lucigenin (10 μmol·L^−1) and NADPH (100 μmol·L^−1). […] The protein concentrations were measured with Bio-Rad kit (Hercules, Calif.). […]

SMILES: CC1(C)CC(O)CC(C)(C)N1[O] [Tempol, tempol]
- inhibition of lucigenin-enhanced chemiluminescence counts [1]: 60-75%

SMILES: CCCc1nc2c(C)cc(-c3nc4ccccc4n3C)cc2n1Cc1ccc(-c2ccccc2C(=O)OC2CC(C)(C)N([O])C(C)(C)C2)cc1 [YK]
- inhibition of lucigenin-enhanced chemiluminescence counts [1]: 60-75%
- increase in sensitivity to metabolism of O2.^− [2]: 100-1000 fold

SMILES: O=c1[nH]c(=O)c2c[nH]nc2[nH]1 [oxypurinol]
- inhibition of lucigenin-enhanced chemiluminescence counts [1]: 60-75%
